Reference: US10960088B2, “Macrocycles, cobalt and iron complexes of same, and methods of making and using same” (The Research Foundation for The State University of New York, priority 2013, dated 2021)

What was measured:
[1] = CEST spectroscopy at 11.7 T
[2] = T1/T2 relaxivity at 4.7 T
[3] = 4.7 Telsa, 37° C., 0.25-4 mM complex, 20 mM HEPES, 100 mM NaCl, pH 7.4-7.5
[4] = 10 mM Co(II) complex, 20 mM HEPES, 100 mM NaCl, pH 7.4, B1=24 μT for 2 s, 37° C.
[5] = from slopes, FIG. 47, HEPES buffer pH 7.2, 37° C.

Row | SMILES | T1 Relaxivity [2, 3] | T2 Relaxivity [2, 3] | CEST peak position [1, 4] | other results
1 | [Fe+2].c1cc(CN2CCN(Cc3cc[nH]n3)CCN(Cc3cc[nH]n3)CC2)n[nH]1 [[Fe(TPT)]^2+] |  |  |  | CEST peak position upon air oxidation ([1]; after air oxidation, versus the bulk water peak): 5 ppm; CEST peak position ([1]; neutral pH): 18 ppm
2 | NC(=O)CN1CCOCCOCCN(CC(N)=O)CCOCC1.[Co+2] [[Co(NOPE)]^2+] | 0.038 mM⁻¹ s⁻¹ | 0.119 mM⁻¹ s⁻¹ |  | 
3 | NC(=O)CN1CCN(CC(N)=O)CCN(CC(N)=O)CCN(CC(N)=O)CC1.[Co+2] [[Co(TCMC)]^2+] | 0.096 mM⁻¹ s⁻¹ | 0.213 mM⁻¹ s⁻¹ | 45 ppm | 
4 | [Co+2].c1cc(CN2CCN(Cc3cc[nH]n3)CCN(Cc3cc[nH]n3)CC2)n[nH]1 [[Co(TPT)]^2+] |  |  |  | T1 Relaxivity ([2]; 4.7 T MRI scanner): 0.093 mM⁻¹ s⁻¹; T2 Relaxivity ([2]; 4.7 T MRI scanner): 0.50 mM⁻¹ s⁻¹; T1 Relaxivity [2, 5]: 0.093 mM/s; T2 Relaxivity [2, 5]: 0.50 mM/s; CEST peak (in words) ([1]; diamagnetic Co(III) form): no highly shifted CEST peak; pH optimum of CEST effect ([1]; pH range of 6-8, 37° C.): 6.9; CEST peak position ([1]; versus water set at zero, 37° C., 20 mM buffer, 100 mM NaCl): 135 ppm
5 | NC(=O)CN1CCCN(CC(N)=O)CCN(CC(N)=O)CCCN(CC(N)=O)CC1.[Co+2] [[Co(CCRM)]^2+] | 0.008 mM⁻¹ s⁻¹ | 0.127 mM⁻¹ s⁻¹ |  | 
6 | NC(=O)CN1CCN(CC(N)=O)CCN(CC(N)=O)CC1.[Co+2] [[Co(TCMT)]^2+] | 0.125 mM⁻¹ s⁻¹ | 0.297 mM⁻¹ s⁻¹ | 32 ppm | 
